Data as given in PubChem BioAssay AID1159578 (Peter MacCallum Cancer Centre, 2015).
The deposit covers about 18,000 reagents; below is an unselected part. About 1,030 of them (5.7%) were called active. 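Inactive calls also include pools with fewer than 3300 nuclei, whose migration was not assessed.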 Raw values vary from plate to plate and are shown uncorrected. Entries without a mark were called inactive.

- Test: 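Genome-wide hunt for genes controlling movement of lymphatic endothelial cells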 (primary screen)
- System: human lymphatic endothelial cells
- Knock-down reagent: siRNA pool against human genes, 40 nM
- Time to read-out: 48 h after transfection
- Read-out: 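High-content imaging of dye-stained cells in a scratch assay measures filled wound area and nuclei per well; duplicate means given as ratio to mock and robust z-score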
- Reading the numbers: migration robust z-score: higher = faster migration into the scratch; migration relative to mock: higher = more scratch area covered than mock; nuclei per well: higher = more cells in the well
- Call rule: 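Pools averaging fewer than 3300 nuclei are never called; remaining pools count as changed when migration robust z lies outside -2 to 2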
- Meaning of the calls: active = migration changed; inactive = no migration change, or too few cells

The first 4 entries as a preview:
gene symbol | migration robust z-score | migration class with cell-count check | migration relative to mock | nuclei per well, duplicate mean
SETD5 (SET domain containing 5) | -0.14 | migration z between -2 and 2; enough cells | 0.84 | 5915
NUFIP2 (nuclear FMR1 interacting protein 2) | -0.31 | migration z between -2 and 2; enough cells | 0.8 | 5546
HACL2 (2-hydroxyacyl-CoA lyase 2) | -0.47 | migration z between -2 and 2; enough cells | 0.72 | 3936
TLR9 (toll like receptor 9) | 1.79 | migration z between -2 and 2; enough cells | 1.15 | 5645

Main list, repeating the preview:
gene symbol | migration robust z-score | migration class with cell-count check | migration relative to mock | nuclei per well, duplicate mean
SETD5 (SET domain containing 5) | -0.14 | migration z between -2 and 2; enough cells | 0.84 | 5915
NUFIP2 (nuclear FMR1 interacting protein 2) | -0.31 | migration z between -2 and 2; enough cells | 0.8 | 5546
HACL2 (2-hydroxyacyl-CoA lyase 2) | -0.47 | migration z between -2 and 2; enough cells | 0.72 | 3936
TLR9 (toll like receptor 9) | 1.79 | migration z between -2 and 2; enough cells | 1.15 | 5645
ASB10 (ankyrin repeat and SOCS box containing 10) | 1.04 | migration z between -2 and 2; enough cells | 1.01 | 5292
TOR1A (torsin family 1 member A) | 0 | migration z between -2 and 2; enough cells | 0.8 | 4720
GOLGB1 (golgin B1) | 0.22 | migration z between -2 and 2; enough cells | 0.94 | 5594
RAB39B (RAB39B, member RAS oncogene family) | -0.16 | migration z between -2 and 2; enough cells | 0.84 | 6206
JUN (Jun proto-oncogene, AP-1 transcription factor subunit) | -2.23 (active) | migration z below -2; enough cells | 0.38 | 4072
TMPRSS7 (transmembrane serine protease 7) | 0.36 | migration z between -2 and 2; enough cells | 0.88 | 5366
NLGN4X (neuroligin 4 X-linked) | -0.03 | migration z between -2 and 2; enough cells | 0.8 | 5552
CDK4 (cyclin dependent kinase 4) | -4.98 | under 3300 nuclei; migration not judged | -0.16 | 3188
TAS2R16 (taste 2 receptor member 16) | 0.19 | migration z between -2 and 2; enough cells | 0.93 | 6050
GDF9 (growth differentiation factor 9) | 0 | migration z between -2 and 2; enough cells | 0.8 | 5234
DCAF12L2 (DDB1 and CUL4 associated factor 12 like 2) | -0.91 | migration z between -2 and 2; enough cells | 0.65 | 6896
RBKS (ribokinase) | -3.17 | under 3300 nuclei; migration not judged | 0.2 | 2982
PTPN4 (protein tyrosine phosphatase non-receptor type 4) | 0.39 | migration z between -2 and 2; enough cells | 0.88 | 4597
MED31 (mediator complex subunit 31) | 1.56 | migration z between -2 and 2; enough cells | 1.29 | 5633
CACNG3 (calcium voltage-gated channel auxiliary subunit gamma 3) | -1.12 | migration z between -2 and 2; enough cells | 0.59 | 4876
TFDP3 (transcription factor Dp family member 3) | 0.02 | migration z between -2 and 2; enough cells | 0.89 | 5799
CYB561 (cytochrome b561) | -1.01 | migration z between -2 and 2; enough cells | 0.62 | 6172
NAALADL1 (N-acetylated alpha-linked acidic dipeptidase like 1) | -1.25 | migration z between -2 and 2; enough cells | 0.56 | 5370
KRTAP27-1 (keratin associated protein 27-1) | -0.64 | migration z between -2 and 2; enough cells | 0.72 | 4844
GCA (grancalcin) | 0.05 | migration z between -2 and 2; enough cells | 0.9 | 4588
FSD1L (fibronectin type III and SPRY domain containing 1 like) | 0.21 | migration z between -2 and 2; enough cells | 0.84 | 5808
COL21A1 (collagen type XXI alpha 1 chain) | -0.02 | migration z between -2 and 2; enough cells | 0.88 | 5376
IER2 (immediate early response 2) | -0.92 | migration z between -2 and 2; enough cells | 0.65 | 6066
ANKRD22 (ankyrin repeat domain 22) | 0.41 | migration z between -2 and 2; enough cells | 0.99 | 6020
MLN (motilin) | 0.89 | migration z between -2 and 2; enough cells | 1.12 | 4306
TAFA1 (TAFA chemokine like family member 1) | -0.32 | migration z between -2 and 2; enough cells | 0.8 | 5408
RNF25 (ring finger protein 25) | 0.68 | migration z between -2 and 2; enough cells | 0.94 | 4679
S100A13 (S100 calcium binding protein A13) | -0.05 | migration z between -2 and 2; enough cells | 0.88 | 5652
CD109 (CD109 molecule) | -0.18 | migration z between -2 and 2; enough cells | 0.84 | 6344
GPX5 (glutathione peroxidase 5) | 0.83 | migration z between -2 and 2; enough cells | 0.97 | 5750
EHD3 (EH domain containing 3) | 1.56 | migration z between -2 and 2; enough cells | 1.29 | 5112
ANKHD1 (ankyrin repeat and KH domain containing 1) | 1.92 | migration z between -2 and 2; enough cells | 1.38 | 4168
LSS (lanosterol synthase) | -0.32 | migration z between -2 and 2; enough cells | 0.74 | 5764
ABR (ABR activator of RhoGEF and GTPase) | -3.01 (active) | migration z below -2; enough cells | 0.1 | 5152
LCK (LCK proto-oncogene, Src family tyrosine kinase) | -0.7 | migration z between -2 and 2; enough cells | 0.67 | 5824
